# Reference: patent US20040171696A1, “Pharmaceutical composition for the treatment of the decline and/or damage of cognitive functions” (priority 2001, published 2004)
# Entries after “also recorded” stand apart in the source; their conditions may differ.
# System: Male Wistar rats
# Test: step through passive avoidance learning
# Assay type: in vivo, rat
# Conditions: 5 mg/kg ip on Day 1; FIG. 2
# Description: Male Wistar rats weighing 200-220 g were used. The animals were obtained from Charles River Co. They were kept in a room with normal 12-12 h light dark cycle (light on: 06:00) at a relative humidity of 60±10%.
# The experiment was performed in a five-channel “step through”-type passive avoidance learning apparatus. The equipment consisted of two adjacent Plexi-glass boxes of 20×20×16 cm. One of them was made of regular transparent Plexi-glass and the other one was made of black, non-transparent Plexi-glass. The boxes were connected with a 7.5×8 cm passage way, equipped with a computer-controlled guillotine-door. The passage of the rats through the door was detected by infrared photocells arranged in two parallel lines in the opening of the passage way. The door was automatically closed when the animals passed through. The dark compartment was equipped with stainless steel grid floor through which electric foot shocks could be delivered to the animals. […]
# The individually numbered animals were placed into the light compartment of the equipment. […] Step through latency was automatically determined. […]
# After 24 h the animals were placed again in the light compartment of the test apparatus and step-through latency was measured as described at Acquisition day, except that no foot shock was applied to the animals in any group on the second day. […]
smiles,measurement,value
"CN1C(=O)CN=C(c2ccccc2)c2cc(Cl)ccc21 [diazepam, reference compound]",retention from long term memory,deleterious effect; also recorded: significantly damaged
